# Data published in PubChem BioAssay AID540256 (National Center for Advancing Translational Sciences (NCATS), 2011).
# “And” between values parts separate entries of the source, which are not always exact repeats. Equal entries are not always repeated. Hit rate of the full screen: of about 300,000 compounds, about 3,700 (1.2%) were called active. This list was built around the results that the source calls inconclusive (neither active nor inactive); the mix of calls is not that of the screen. Calls come from the whole dose curve; tested in HEK293 cells. Potencies of inconclusive entries are doubtful fits and often do not repeat.
# Assay: qHTS for Inhibitors of binding or entry into cells for Lassa Virus; note: nearly all actives have a fitted effect of over 50% in size
# Settings: Lassa virus pseudotype entry inhibition, cell reporter; activity change, negative = inhibition: at 37.9 µM (top of the series) unless noted
# % is set by controls: 0 for no effect and ±100 for the full control effect; potency is the fitted concentration of half-maximal effect.
SMILES,Potency,"activity change, negative = inhibition"
O=C(c1cn(Cc2ccccc2)nc1-c1ccc(Cl)cc1)N1CCN(c2ccccn2)CC1,"inconclusive: 11.2 µM [inhibitor, partial curve, poor fit]",–
CC(NC(=O)c1cc(=O)[nH]c2ccccc12)c1ccc(F)cc1F (stereo not drawn),"inconclusive: 22.4 µM [inhibitor, single point]",–
CCCC(=O)Nc1ccc(-c2csc(-c3cccnc3)n2)cc1,inactive,–
COc1ccc(N2C(=O)C3[C@@H](C2=O)C2(Cl)C(Cl)=C(Cl)C3(Cl)C2(OC)OC)cc1 (stereo partly drawn),inactive,–
COc1cc(NC(=O)c2ccc(C)cc2)ccc1NC(=O)c1cc2ccccc2o1,inactive,–
CCOC(=O)Nc1ccc(NCc2ccc(F)cc2)nc1N,–,inconclusive: -73.3% [inhibitor]
Cc1csc2nc(-c3cccc(NC(=O)C(C)C)c3)cn12,inactive,–
Cc1ccc2ncnc(Nc3ccc(C)c(C)c3)c2c1,"inconclusive: 14.6 µM [activator, partial curve, poor fit]",–
CCOc1ccc(S(=O)(=O)N2CN(c3cccc(C(C)=O)c3)c3nc4ccccc4nc32)cc1,"inconclusive: 6.31 µM [inhibitor, single point]",–
COc1ccc(C2CC(c3ccccc3)=NN2C(=O)CSc2ncccn2)cc1 (stereo not drawn),"inconclusive: 15.8 µM [inhibitor, single point]",–
CC(OC(=O)c1snc(C(=O)NC2CCCCC2)c1N)C(=O)NC(C)(C)C (stereo not drawn),"inconclusive: 1.12 µM [inhibitor, full curve, poor fit]",–
Cc1nc(SCC(=O)OCc2ccccc2)c(C#N)c(-c2ccccc2)c1C(=O)Nc1ccccc1,"inconclusive: 5.8 µM [inhibitor, full curve, poor fit]",–
NNC(=O)c1cnn(Cc2ccccc2)c1N,"inconclusive: 11.2 µM [inhibitor, partial curve, poor fit]",–
O=S1(=O)CCC(N=Cc2ccc(-c3ccc(Cl)cc3)o2)C1 (stereo not drawn),"inconclusive: 5.62 µM [inhibitor, single point]",–
Cc1ccc2oc(C(=O)NCCC3CCCCO3)c(C)c2c1 (stereo not drawn),"inconclusive: 15.8 µM [inhibitor, single point]",–
Cc1c(/C=N\NC(=O)c2c[nH]c3ccccc23)cnn1C,inactive,–
COc1cc(CN2CCN(c3cccc(C)c3C)CC2)cc(Br)c1O,"inconclusive: 5.8 µM [inhibitor, partial curve]",–
CC1(C(=O)OCC(=O)Nc2ccccc2Cl)CC1(Cl)Cl (stereo not drawn),"inconclusive: 28.2 µM [activator, single point]",–
CCOc1ccc(S(=O)(=O)NCCC(=O)N2CCC(Cc3ccccc3)CC2)cc1,"inconclusive: 3.55 µM [inhibitor, partial curve, poor fit]",–
CCC(=O)Nc1cc(C(=O)OCC(=O)c2ccccc2)ccc1C,inactive,–
CCN(CCCNC(=O)Cn1ncc2c([nH]c3ccc(C)cc32)c1=O)c1cccc(C)c1,"inactive and inconclusive: 17.8 µM [activator, single point]",–
Cc1cc(C(=O)NNc2ccccc2F)no1,"inconclusive: 2.82 µM [inhibitor, partial curve, poor fit]",–

# Entries listed so far with an aryl thioether with sulfur outside any ring, in the order listed:
SMILES,Potency,"activity change, negative = inhibition"
COc1ccc(C2CC(c3ccccc3)=NN2C(=O)CSc2ncccn2)cc1 (stereo not drawn),"inconclusive: 15.8 µM [inhibitor, single point]",–
Cc1nc(SCC(=O)OCc2ccccc2)c(C#N)c(-c2ccccc2)c1C(=O)Nc1ccccc1,"inconclusive: 5.8 µM [inhibitor, full curve, poor fit]",–

# Next part.

SMILES,Potency,"activity change, negative = inhibition"
Cc1ncc(CO)c(/C=N/NC(=O)c2ccccc2Br)c1O,inactive,–
CCCc1nc2ccccc2c(=O)n1NC(=O)c1c(O)c2ccccc2n(C)c1=O,"inconclusive: 35.5 µM [inhibitor, single point]",–
CCOC(=O)c1c(C)nc2c3ccccc3ccn12,inactive,–
Cc1nc2cccnc2n1-c1cccc(C(=O)N2CCN(c3ccc(Cl)cc3)CC2)c1,"inconclusive: 7.94 µM [inhibitor, partial curve, poor fit]",–
CCCOc1ccc(OCCSc2ncccn2)cc1,"inconclusive: 0.82 µM [activator, single point]",–
O=c1[nH]c(C2CCCN(S(=O)(=O)c3ccccc3)C2)nc2c1nnn2Cc1cccc(Cl)c1 (stereo not drawn),"inconclusive: 35.5 µM [inhibitor, single point]",–
Nc1c(C(=O)NCCc2ccccc2)nnn1Cc1ccccc1,"inconclusive: 29.1 µM [activator, single point]",–
CCc1ccc(NC(=S)N(CCN2CCOCC2)Cc2ccccc2F)cc1,"inconclusive: 35.5 µM [inhibitor, partial curve, poor fit]",–
CCOc1ccc(S(=O)(=O)N2CCCCC2)cc1NC(=O)C1=COCCO1,"inconclusive: 35.5 µM [inhibitor, single point]",–
COc1ccc(C2SCCN2C(=S)Nc2cccc(Cl)c2)cc1 (stereo not drawn),"inconclusive: 35.5 µM [inhibitor, single point]",–
CN(C)CCCNC(=O)c1ccc(-c2nc(-c3ccc(Cl)cc3)cs2)cc1,"inconclusive: 35.5 µM [inhibitor, single point]",–
CCn1cc(Br)c(C(=O)Nc2ccc(OC)cc2)n1,"inconclusive: 7.3 µM [activator, partial curve]",–
O=S(=O)(c1cnc(Cl)c(Cl)c1)N1CCCc2ccccc21,"inconclusive: 29.1 µM [inhibitor, single point]",–
CNC(=O)CN(c1cc([N+](=O)[O-])ccc1OC)S(C)(=O)=O,"inconclusive: 0.58 µM [inhibitor, partial curve, poor fit]",–
Cc1ccc(N2CCOCC2)c2c1C(=O)c1ccccc1C2=O,"inconclusive: 23.1 µM [inhibitor, partial curve, poor fit]",–
Cc1ccccc1-c1nnc(-c2ccccc2C)o1,inactive,–
Cc1cccnc1NC(=O)c1ccccc1NC(=O)C(C)(C)C,inactive,–
COc1ccc(CC(=O)Nc2c(C(=O)N3CCN(c4ccccc4OC)CC3)oc3ccccc23)cc1OC,"inconclusive: 10 µM [inhibitor, partial curve, poor fit]",–
Cc1ccc(NC(=O)c2ccc3c(c2)OCCO3)cc1,active: 4.47 µM,–
CCOc1cc2[nH]c(=O)n(Cc3ccc(C(=O)N4CCN(c5cccc(Cl)c5)CC4)cc3)c(=O)c2cc1OCC,"inconclusive: 11.2 µM [inhibitor, single point]",–
